Results reported in patent publication US12419871B2, “Biomolecules involved in Alzheimer's disease” (ELECTROPHORETICS LIMITED, priority 2015, dated 2025).

Assay: TMTcalibrator quantification of regulated proteins in AD CSF versus control
Design: species or system human
Conditions: CSF of AD patient versus control; non-modified peptides of each protein summed for three control and three AD cases

Row | Molecule | Log2 AD/Control
1 | P23434 (protein, UniProt P23434 1-173, looked up, full-length) MALRVVRSVRALLCTLRAVPSPAAPCPPRPWQLGVGAVRTLRTGPALLSVRKFTEKHEWVTTENGIGTVGISNFAQEALGDVVYCSLPEVGTKLNKQDEFGALESVKAASELYSPLSGEVTEINEALAENPGLVNKSCYEDGWLIKMTLSNPSELDELMSEEAYEKYIKSIEE | 0.94
2 | P00739 (protein, UniProt P00739 1-348, looked up, full-length) MSDLGAVISLLLWGRQLFALYSGNDVTDISDDRFPKPPEIANGYVEHLFRYQCKNYYRLRTEGDGVYTLNDKKQWINKAVGDKLPECEAVCGKPKNPANPVQRILGGHLDAKGSFPWQAKMVSHHNLTTGATLINEQWLLTTAKNLFLNHSENATAKDIAPTLTLYVGKKQLVEIEKVVLHPNYHQVDIGLIKLKQKVLVNERVMPICLPSKNYAEVGRVGYVSGWGQSDNFKLTDHLKYVMLPVADQYDCITHYEGSTCPKWKAPKSPVGVQPILNEHTFCVGMSKYQEDTCYGDAGSAFAVHDLEEDTWYAAGILSFDKSCAVAEYGVYVKVTSIQHWVQKTIAEN | −1.65
3 | P42261 (protein, UniProt P42261 1-906, looked up, full-length) MQHIFAFFCTGFLGAVVGANFPNNIQIGGLFPNQQSQEHAAFRFALSQLTEPPKLLPQIDIVNISDSFEMTYRFCSQFSKGVYAIFGFYERRTVNMLTSFCGALHVCFITPSFPVDTSNQFVLQLRPELQDALISIIDHYKWQKFVYIYDADRGLSVLQKVLDTAAEKNWQVTAVNILTTTEEGYRMLFQDLEKKKERLVVVDCESERLNAILGQIIKLEKNGIGYHYILANLGFMDIDLNKFKESGANVTGFQLVNYTDTIPAKIMQQWKNSDARDHTRVDWKRPKYTSALTYDGVKVMAEAFQSLRRQRIDISRRGNAGDCLANPAVPWGQGIDIQRALQQVRFEGLTGNVQFNEKGRRTNYTLHVIEMKHDGIRKIGYWNEDDKFVPAATDAQAGGDNSSVQNRTYIVTTILEDPYVMLKKNANQFEGNDRYEGYCVELAAEIAKHVGYSYRLEIVSDGKYGARDPDTKAWNGMVGELVYGRADVAVAPLTITLVREEVIDFSKPFMSLGISIMIKKPQKSKPGVFSFLDPLAYEIWMCIVFAYIGVSVVLFLVSRFSPYEWHSEEFEEGRDQTTSDQSNEFGIFNSLWFSLGAFMQQGCDISPRSLSGRIVGGVWWFFTLIIISSYTANLAAFLTVERMVSPIESAEDLAKQTEIAYGTLEAGSTKEFFRRSKIAVFEKMWTYMKSAEPSVFVRTTEEGMIRVRKSKGKYAYLLESTMNEYIEQRKPCDTMKVGGNLDSKGYGIATPKGSALRNPVNLAVLKLNEQGLLDKLKNKWWYDKGECGSGGGDSKDKTSALSLSNVAGVFYILIGGLGLAMLVALIEFCYKSRSESKRMKGFCLIPQQSINEAIRTSTLPRNSGAGASSGGSGENGRVVSHDFPKSMQSIPCMSHSSGMPLGATGL | 1.13
4 | Q9Y2T3 (protein, UniProt Q9Y2T3 1-454, looked up, full-length) MCAAQMPPLAHIFRGTFVHSTWTCPMEVLRDHLLGVSDSGKIVFLEEASQQEKLAKEWCFKPCEIRELSHHEFFMPGLVDTHIHASQYSFAGSSIDLPLLEWLTKYTFPAEHRFQNIDFAEEVYTRVVRRTLKNGTTTACYFATIHTDSSLLLADITDKFGQRAFVGKVCMDLNDTFPEYKETTEESIKETERFVSEMLQKNYSRVKPIVTPRFSLSCSETLMGELGNIAKTRDLHIQSHISENRDEVEAVKNLYPSYKNYTSVYDKNNLLTNKTVMAHGCYLSAEELNVFHERGASIAHCPNSNLSLSSGFLNVLEVLKHEVKIGLGTDVAGGYSYSMLDAIRRAVMVSNILLINKVNEKSLTLKEVFRLATLGGSQALGLDGEIGNFEVGKEFDAILINPKASDSPIDLFYGDFFGDISEAVIQKFLYLGDDRNIEEVYVGGKQVVPFSSSV | 0.75
5 | O76003 (protein, UniProt O76003 1-335, looked up, full-length) MAAGAAEAAVAAVEEVGSAGQFEELLRLKAKSLLVVHFWAPWAPQCAQMNEVMAELAKELPQVSFVKLEAEGVPEVSEKYEISSVPTFLFFKNSQKIDRLDGAHAPELTKKVQRHASSGSFLPSANEHLKEDLNLRLKKLTHAAPCMLFMKGTPQEPRCGFSKQMVEILHKHNIQFSSFDIFSDEEVRQGLKAYSSWPTYPQLYVSGELIGGLDIIKELEASEELDTICPKAPKLEERLKVLTNKASVMLFMKGNKQEAKCGFSKQILEILNSTGVEYETFDILEDEEVRQGLKAYSNWPTYPQLYVKGELVGGLDIVKELKENGELLPILRGEN | 0.90
6 | P05546 (protein, UniProt P05546 1-499, looked up, full-length) MKHSLNALLIFLIITSAWGGSKGPLDQLEKGGETAQSADPQWEQLNNKNLSMPLLPADFHKENTVTNDWIPEGEEDDDYLDLEKIFSEDDDYIDIVDSLSVSPTDSDVSAGNILQLFHGKSRIQRLNILNAKFAFNLYRVLKDQVNTFDNIFIAPVGISTAMGMISLGLKGETHEQVHSILHFKDFVNASSKYEITTIHNLFRKLTHRLFRRNFGYTLRSVNDLYIQKQFPILLDFKTKVREYYFAEAQIADFSDPAFISKTNNHIMKLTKGLIKDALENIDPATQMMILNCIYFKGSWVNKFPVEMTHNHNFRLNEREVVKVSMMQTKGNFLAANDQELDCDILQLEYVGGISMLIVVPHKMSGMKTLEAQLTPRVVERWQKSMTNRTREVLLPKFKLEKNYNLVESLKLMGIRMLFDKNGNMAGISDQRIAIDLFKHQGTITVNEEGTQATTVTTVGFMPLSTQVRFTVDRPFLFLIYEHRTSCLLFMGRVANPSRS | −0.66
7 | Q8IZP7 (protein, UniProt Q8IZP7 1-471, looked up, full-length) MDERFNKWLLTPVLTLLFVVIMYQYVSPSCTSSCTNFGEQPRAGEAGPPAVPGPARRAQAPPEEWERRPQLPPPPRGPPEGPRGAAAPEEEDEEPGDPREGEEEEEEDEPDPEAPENGSLPRFVPRFNFSLKDLTRFVDFNIKGRDVIVFLHIQKTGGTTFGRHLVKNIRLEQPCSCKAGQKKCTCHRPGKKETWLFSRFSTGWSCGLHADWTELTNCVPAIMEKKDCPRNHSHTRNFYYITMLRDPVSRYLSEWKHVQRGATWKTSLHMCDGRSPTPDELPTCYPGDDWSGVSLREFMDCTYNLANNRQVRMLADLSLVGCYNLTFMNESERNTILLQSAKNNLKNMAFFGLTEFQRKTQFLFERTFNLKFISPFTQFNITRASNVEINEGARQRIEDLNFLDMQLYEYAKDLFQQRYHHTKQLEHQRDRQKRREERRLQREHRDHQWPKEDGAAEGTVTEDYNSQVVRW | 0.78
8 | Q6ZVN8 (protein, UniProt Q6ZVN8 1-426, looked up, full-length) MGEPGQSPSPRSSHGSPPTLSTLTLLLLLCGHAHSQCKILRCNAEYVSSTLSLRGGGSSGALRGGGGGGRGGGVGSGGLCRALRSYALCTRRTARTCRGDLAFHSAVHGIEDLMIQHNCSRQGPTAPPPPRGPALPGAGSGLPAPDPCDYEGRFSRLHGRPPGFLHCASFGDPHVRSFHHHFHTCRVQGAWPLLDNDFLFVQATSSPMALGANATATRKLTIIFKNMQECIDQKVYQAEVDNLPVAFEDGSINGGDRPGGSSLSIQTANPGNHVEIQAAYIGTTIIIRQTAGQLSFSIKVAEDVAMAFSAEQDLQLCVGGCPPSQRLSRSERNRRGAITIDTARRLCKEGLPVEDAYFHSCVFDVLISGDPNFTVAAQAALEDARAFLPDLEKLHLFPSDAGVPLSSATLLAPLLSGLFVLWLCIQ | 0.87
9 | P00738 (protein, UniProt P00738 1-406, looked up, full-length) MSALGAVIALLLWGQLFAVDSGNDVTDIADDGCPKPPEIAHGYVEHSVRYQCKNYYKLRTEGDGVYTLNDKKQWINKAVGDKLPECEADDGCPKPPEIAHGYVEHSVRYQCKNYYKLRTEGDGVYTLNNEKQWINKAVGDKLPECEAVCGKPKNPANPVQRILGGHLDAKGSFPWQAKMVSHHNLTTGATLINEQWLLTTAKNLFLNHSENATAKDIAPTLTLYVGKKQLVEIEKVVLHPNYSQVDIGLIKLKQKVSVNERVMPICLPSKDYAEVGRVGYVSGWGRNANFKFTDHLKYVMLPVADQDQCIRHYEGSTVPEKKTPKSPVGVQPILNEHTFCAGMSKYQEDTCYGDAGSAFAVHDLEEDTWYATGILSFDKSCAVAEYGVYVKVTSIQDWVQKTIAEN | −1.07
10 | Q8IZP0 (protein, UniProt Q8IZP0 1-508, looked up, full-length) MAELQMLLEEEIPSGKRALIESYQNLTRVADYCENNYIQATDKRKALEETKAYTTQSLASVAYQINALANNVLQLLDIQASQLRRMESSINHISQTVDIHKEKVARREIGILTTNKNTSRTHKIIAPANMERPVRYIRKPIDYTVLDDVGHGVKWLKAKHGNNQPARTGTLSRTNPPTQKPPSPPMSGRGTLGRNTPYKTLEPVKPPTVPNDYMTSPARLGSQHSPGRTASLNQRPRTHSGSSGGSGSRENSGSSSIGIPIAVPTPSPPTIGPENISVPPPSGAPPAPPLAPLLPVSTVIAAPGSAPGSQYGTMTRQISRHNSTTSSTSSGGYRRTPSVTAQFSAQPHVNGGPLYSQNSISIAPPPPPMPQLTPQIPLTGFVARVQENIADSPTPPPPPPPDDIPMFDDSPPPPPPPPVDYEDEEAAVVQYNDPYADGDPAWAPKNYIEKVVAIYDYTKDKDDELSFMEGAIIYVIKKNDDGWYEGVCNRVTGLFPGNYVESIMHYTD | 1.04
11 | Q8TDQ7 (protein, UniProt Q8TDQ7 1-276, looked up, full-length) MRLVILDNYDLASEWAAKYICNRIIQFKPGQDRYFTLGLPTGSTPLGCYKKLIEYHKNGHLSFKYVKTFNMDEYVGLPRNHPESYHSYMWNNFFKHIDIDPNNAHILDGNAADLQAECDAFENKIKEAGGIDLFVGGIGPDGHIAFNEPGSSLVSRTRLKTLAMDTILANAKYFDGDLSKVPTMALTVGVGTVMDAREVMILITGAHKAFALYKAIEEGVNHMWTVSAFQQHPRTIFVCDEDATLELRVKTVKYFKGLMHVHNKLVDPLFSMKDGN | −0.65
12 | P78417 (protein, UniProt P78417 1-241, looked up, full-length) MSGESARSLGKGSAPPGPVPEGSIRIYSMRFCPFAERTRLVLKAKGIRHEVININLKNKPEWFFKKNPFGLVPVLENSQGQLIYESAITCEYLDEAYPGKKLLPDDPYEKACQKMILELFSKVPSLVGSFIRSQNKEDYAGLKEEFRKEFTKLEEVLTNKKTTFFGGNSISMIDYLIWPWFERLEAMKLNECVDHTPKLKLWMAAMKEDPTVSALLTSEKDWQGFLELYLQNSPEACDYGL | 1.13
13 | P32754 (protein, UniProt P32754 1-393, looked up, full-length) MTTYSDKGAKPERGRFLHFHSVTFWVGNAKQATSFYCSKMGFEPLAYRGLETGSREVVSHVIKQGKIVFVLSSALNPWNKEMGDHLVKHGDGVKDIAFEVEDCDYIVQKARERGAKIMREPWVEQDKFGKVKFAVLQTYGDTTHTLVEKMNYIGQFLPGYEAPAFMDPLLPKLPKCSLEMIDHIVGNQPDQEMVSASEWYLKNLQFHRFWSVDDTQVHTEYSSLRSIVVANYEESIKMPINEPAPGKKKSQIQEYVDYNGGAGVQHIALKTEDIITAIRHLRERGLEFLSVPSTYYKQLREKLKTAKIKVKENIDALEELKILVDYDEKGYLLQIFTKPVQDRPTLFLEVIQRHNHQGFGAGNFNSLFKAFEEEQNLRGNLTNMETNGVVPGM | 0.76
